Measurements: PMC8274477
No constants are given. Whether binding was seen depends on the method and setting. Some results given as binding are weak or reduced against the parent protein; the word gives no strength.

By UniProt entry, the sequences of proteins in these tests, tags left out.
UniProt O43516: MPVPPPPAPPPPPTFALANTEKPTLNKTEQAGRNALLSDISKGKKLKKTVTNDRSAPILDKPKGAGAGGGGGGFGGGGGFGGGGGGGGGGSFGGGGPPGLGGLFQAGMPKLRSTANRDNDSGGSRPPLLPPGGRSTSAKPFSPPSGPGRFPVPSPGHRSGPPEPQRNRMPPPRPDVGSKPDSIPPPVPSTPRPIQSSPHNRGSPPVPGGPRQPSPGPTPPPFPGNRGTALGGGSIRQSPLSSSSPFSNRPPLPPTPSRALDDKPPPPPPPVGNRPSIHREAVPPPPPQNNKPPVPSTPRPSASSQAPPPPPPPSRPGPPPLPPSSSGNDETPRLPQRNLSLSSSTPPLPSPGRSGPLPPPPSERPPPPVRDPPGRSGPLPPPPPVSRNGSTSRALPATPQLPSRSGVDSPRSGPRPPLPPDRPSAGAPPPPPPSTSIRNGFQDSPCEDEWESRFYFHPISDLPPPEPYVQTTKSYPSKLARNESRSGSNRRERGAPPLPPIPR

Tests used:
Assay in all cases: peptide or protein array; HuProt human proteome microarray; 5 ug/5 ml biotin-labelled LUBAC or OTULIN in solution, 1 h at room temperature; Cy5-streptavidin, scanned at 635 nm; BSA as negative control; hits: Z-score >= 3 and I_(Mean_Ratio) >= 1.4; both purified
ALKBH2 (human) = biological target: T1, ALKBH2 (human) (UniProt Q6NS38)
T1 sequence: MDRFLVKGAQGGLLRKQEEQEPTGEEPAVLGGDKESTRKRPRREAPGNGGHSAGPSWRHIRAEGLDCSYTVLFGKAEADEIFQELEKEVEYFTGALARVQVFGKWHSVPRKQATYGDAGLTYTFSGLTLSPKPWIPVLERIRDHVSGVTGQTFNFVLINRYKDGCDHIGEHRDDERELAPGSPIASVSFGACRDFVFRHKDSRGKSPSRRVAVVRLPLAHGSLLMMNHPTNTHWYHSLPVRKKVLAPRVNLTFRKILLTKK

CUTA (human) = biological target: T2, CUTA (human) (UniProt O60888)
T2 sequence: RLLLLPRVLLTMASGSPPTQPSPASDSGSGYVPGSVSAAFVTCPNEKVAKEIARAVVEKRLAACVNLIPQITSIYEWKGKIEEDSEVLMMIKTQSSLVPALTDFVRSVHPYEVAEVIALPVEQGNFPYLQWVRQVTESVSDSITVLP

PPP1R13L (human) = biological target: T3, PPP1R13L (human) (UniProt Q8WUF5)
T3 sequence: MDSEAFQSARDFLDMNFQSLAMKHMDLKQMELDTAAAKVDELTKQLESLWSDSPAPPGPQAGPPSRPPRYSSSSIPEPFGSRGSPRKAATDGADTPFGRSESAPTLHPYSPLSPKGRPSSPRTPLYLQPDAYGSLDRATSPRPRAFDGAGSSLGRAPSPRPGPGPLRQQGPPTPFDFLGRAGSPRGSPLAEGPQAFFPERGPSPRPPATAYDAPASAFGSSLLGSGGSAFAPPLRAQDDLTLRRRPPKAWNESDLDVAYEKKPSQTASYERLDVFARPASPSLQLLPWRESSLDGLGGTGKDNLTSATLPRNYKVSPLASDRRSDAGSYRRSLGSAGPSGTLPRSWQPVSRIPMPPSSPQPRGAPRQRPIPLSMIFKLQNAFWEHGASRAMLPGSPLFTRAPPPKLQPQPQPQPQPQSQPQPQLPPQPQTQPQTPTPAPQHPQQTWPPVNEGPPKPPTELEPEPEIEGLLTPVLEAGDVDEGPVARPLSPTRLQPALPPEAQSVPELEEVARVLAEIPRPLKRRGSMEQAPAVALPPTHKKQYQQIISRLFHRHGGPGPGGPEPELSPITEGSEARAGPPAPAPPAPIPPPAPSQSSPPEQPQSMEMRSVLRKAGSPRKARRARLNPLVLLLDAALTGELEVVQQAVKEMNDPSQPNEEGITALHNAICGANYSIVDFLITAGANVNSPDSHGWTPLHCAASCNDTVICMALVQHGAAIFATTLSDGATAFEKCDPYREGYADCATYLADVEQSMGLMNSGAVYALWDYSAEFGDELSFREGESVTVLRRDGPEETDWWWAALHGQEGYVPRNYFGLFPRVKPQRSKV

RBM46 (human) = biological target: T4, RBM46 (human) (UniProt Q8TBY0)
T4 sequence: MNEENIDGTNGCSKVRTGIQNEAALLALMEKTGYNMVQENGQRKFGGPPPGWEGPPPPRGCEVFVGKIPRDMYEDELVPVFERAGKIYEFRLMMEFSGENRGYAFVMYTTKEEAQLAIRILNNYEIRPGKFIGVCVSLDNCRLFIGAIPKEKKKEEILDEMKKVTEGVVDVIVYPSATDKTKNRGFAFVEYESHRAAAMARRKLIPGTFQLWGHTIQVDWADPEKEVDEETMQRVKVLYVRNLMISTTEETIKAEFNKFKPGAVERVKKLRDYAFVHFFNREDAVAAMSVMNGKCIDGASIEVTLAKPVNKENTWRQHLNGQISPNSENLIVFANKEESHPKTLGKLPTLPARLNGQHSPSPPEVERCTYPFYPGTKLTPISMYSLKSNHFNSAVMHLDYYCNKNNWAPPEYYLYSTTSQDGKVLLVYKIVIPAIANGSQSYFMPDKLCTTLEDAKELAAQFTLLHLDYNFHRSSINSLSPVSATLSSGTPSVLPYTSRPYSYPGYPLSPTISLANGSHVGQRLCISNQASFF

WIPF1 (human) = WIPF1 (human) (UniProt O43516)
ZNF385A (human) = biological target: T5, ZNF385A (human) (UniProt Q96PM9)
T5 sequence: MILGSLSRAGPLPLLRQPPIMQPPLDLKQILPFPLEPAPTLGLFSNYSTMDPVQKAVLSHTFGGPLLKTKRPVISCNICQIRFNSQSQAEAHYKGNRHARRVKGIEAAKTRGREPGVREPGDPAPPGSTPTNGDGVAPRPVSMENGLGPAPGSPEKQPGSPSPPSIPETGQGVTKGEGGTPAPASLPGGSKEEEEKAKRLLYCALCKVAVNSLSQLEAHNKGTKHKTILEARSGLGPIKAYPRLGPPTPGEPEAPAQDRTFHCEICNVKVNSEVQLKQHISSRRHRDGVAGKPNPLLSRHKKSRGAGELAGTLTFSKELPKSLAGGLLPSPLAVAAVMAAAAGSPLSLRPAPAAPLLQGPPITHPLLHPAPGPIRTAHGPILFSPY

Measured: binding

linear ubiquitin chain assembly complex (LUBAC), purified as HIS-tagged HOIP with the subunit HOIL-1, biotin-labelled (from UniProt Q96EP0 1-1072; Q9BYM8 1-510)
binds: all assays above
